Data as given in PubChem BioAssay AID652259 (Drosophila RNAi Screening Center, 2013)
Assay: 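Genome-wide hunt for genes that control Wingless pathway activity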 (primary screen). Cells: Drosophila clone 8 imaginal disc epithelial cells. Reagent: long dsRNA against Drosophila genes. Treatment: pathway stimulated by co-transfected Wingless expression plasmid. Measurement: 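Firefly luciferase from a tcf-site Wingless reporter, measured alongside co-transfected Renilla luciferase that tracks transfection; pathway stimulated by a Wingless plasmid; the firefly-to-Renilla ratio is not deposited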. Scale: firefly reporter light: higher = more Wg reporter light, before normalisation; Renilla control light: higher = more transfected or surviving cells. Hit rule: 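a knock-down is a candidate when at least two out of four statistical tests show it departing from its plate mean; one test alone signals a weak candidate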. Calls: active = candidate regulator (raises or lowers reporter); inactive = not a candidate.
In all, the deposit lists about 22,000 reagents; this is an unselected part of those with a known target gene and a result. In the full data, 233 (1.1%) are marked active. 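Light values are raw, unnormalised plate reads; the ratio scores behind the reporter calls were not deposited.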 Unmarked entries are inactive. The record does not give: the amount of reagent, the time to read-out, the dose of the treatment.

Depletion of AlkB (GeneID 2768870) [DRSC19115] gave: firefly reporter light, replicate 1 = 2566; Renilla control light, replicate 1 = 1112. Knock-down of Ttd14 (GeneID 37119) [DRSC06632] came out at: firefly reporter light, replicate 1 = 22231; Renilla control light, replicate 1 = 6564. After knock-down of Ttd14 (GeneID 37119) [DRSC06942] the results were reporter change call, replicate 1 = Wg reporter activity raised; firefly reporter light, replicate 1 = 7547; Renilla control light, replicate 1 = 2896. For CG14417 (GeneID 31274) [DRSC18638], the entry reads firefly reporter light, replicate 1 = 16995; Renilla control light, replicate 1 = 12020. CG32599 (GeneID 318108) [DRSC19433] scored firefly reporter light, replicate 1 = 1952; firefly reporter light, replicate 2 = 10416; Renilla control light, replicate 1 = 585; Renilla control light, replicate 2 = 2009. Against Adgf-C (GeneID 41680) [DRSC16473], the values are firefly reporter light, replicate 1 = 19433; Renilla control light, replicate 1 = 3155.

With knock-down of elgi (GeneID 39735) [DRSC10242], the record shows firefly reporter light, replicate 1 = 7568; Renilla control light, replicate 1 = 1747. Depletion of CG14736 (GeneID 41466) [DRSC14956] resulted in: firefly reporter light, replicate 1 = 18952; Renilla control light, replicate 1 = 6576. Depletion of krz (GeneID 53554) [DRSC16979] resulted in: firefly reporter light, replicate 1 = 27602; Renilla control light, replicate 1 = 14429. exex (GeneID 38884) [DRSC10972] scored firefly reporter light, replicate 1 = 1280; firefly reporter light, replicate 2 = 6498; Renilla control light, replicate 1 = 1384; Renilla control light, replicate 2 = 2069.

Laid out differently: 2 of the entries above.
| gene | dsRNA | reporter change call, replicate 1 | firefly reporter light, replicate 1 | firefly reporter light, replicate 2 | Renilla control light, replicate 1 | Renilla control light, replicate 2 |
| --- | --- | --- | --- | --- | --- | --- |
| Adgf-C (GeneID 41680) | DRSC16473 | – | 19433 | – | 3155 | – |
| elgi (GeneID 39735) | DRSC10242 | – | 7568 | – | 1747 | – |

The results go on.
For CG17376 (GeneID 59227) [DRSC21717], the entry reads firefly reporter light, replicate 1 = 2.33e5; firefly reporter light, replicate 2 = 2.13e5; Renilla control light, replicate 1 = 1.16e5; Renilla control light, replicate 2 = 90300. Depletion of Ncc69 (GeneID 39410) [DRSC10412] gave: firefly reporter light, replicate 1 = 7332; Renilla control light, replicate 1 = 3617. With knock-down of Ncc69 (GeneID 39410) [DRSC10413], the screen gave firefly reporter light, replicate 1 = 8769; Renilla control light, replicate 1 = 3018. CG30383 (GeneID 246583) [DRSC05062] gave firefly reporter light, replicate 1 = 13240; Renilla control light, replicate 1 = 6552. Eig71Ec (GeneID 39703) [DRSC11150] gave firefly reporter light, replicate 1 = 6138; Renilla control light, replicate 1 = 2740. Silencing of CG9570 (GeneID 33009) [DRSC20687] resulted in: firefly reporter light, replicate 1 = 29291; Renilla control light, replicate 1 = 1867.

With knock-down of fs(1)Ya (GeneID 31263) [DRSC18776], the screen gave firefly reporter light, replicate 1 = 2637; firefly reporter light, replicate 2 = 5796; Renilla control light, replicate 1 = 884; Renilla control light, replicate 2 = 1788.
